Results from the supplement of paper PMC3334620.
In all, about 33,000 sequences were measured (“E-score (-0.5 to 0.5)”: median about -0.0034, highest 2% from about 0.25 on). The list shows a part of the results.

Molecular target: T1, Yap3 (UniProt P38749)
T1 sequence: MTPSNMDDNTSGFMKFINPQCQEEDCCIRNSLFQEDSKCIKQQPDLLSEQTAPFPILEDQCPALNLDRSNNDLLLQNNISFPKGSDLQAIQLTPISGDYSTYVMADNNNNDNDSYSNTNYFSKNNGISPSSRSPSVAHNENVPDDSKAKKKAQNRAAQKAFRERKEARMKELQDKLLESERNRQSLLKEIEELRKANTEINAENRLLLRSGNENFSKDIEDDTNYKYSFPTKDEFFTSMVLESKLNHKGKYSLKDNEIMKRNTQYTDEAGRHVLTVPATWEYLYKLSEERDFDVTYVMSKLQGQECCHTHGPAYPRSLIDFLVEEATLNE
Assay: PBM E-score (8-mer binding enrichment) (E-score (-0.5 to 0.5)); higher = stronger / more preferred TF binding
Details: protein concentration: 100 nM; construct: GST-full length
Method in brief: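 Each ungapped eight-base word and its reverse complement, pooled, received an E-score from the Universal PBM Analysis Suite. Underlying scans, normalised with masliner, recorded fluorescent anti-GST bound to GST-tagged yeast transcription factors. These were applied at about 100-200 nM to universal all-10-mer Agilent arrays double-stranded by primer extension.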

Sequence	PBM E-score
AACTCCCA	0.0399
CACGAAAA	0.176
GATCCCTA	-0.144
GTCGGTGA	-0.149
ACCTTGTA	0.0214
GCTACCGA	-0.00336
CGCCTGCC	-0.27
AAGTCCGC	-0.104
CTCCGCTA	-0.187
AGGTCCGG	-0.182
ACAGAACG	0.0442
CCGAGAAC	0.0294
ACGCTGCA	-0.131
ATATCGTC	0.00282
GCAAATCA	0.134
AACGCTAC	0.0181
AACCTCTT	0.00568
AGGATCCA	0.0753
CCTCACCC	-0.144
GCTCTCAC	-0.191
AAGCTCAT	-0.1
AATTGCGA	0.0115
AACGTCCT	0.0567
CGGTAGAC	0.0616
AGACAAGA	0.149

Sequence	PBM E-score
TAACACAA	0.174
ACAGGTCC	-0.273
AGCTTGGA	-0.138
AATATCAA	0.244
ATAAGGTA	0.21
TCCTTCGA	-0.0934
GAAGATTC	-0.0627
AAGAGTTC	-0.102
GATCGAAA	0.124
GAAAGTTC	-0.149
AGTAGGTA	0.0502
ACAACGCT	0.0729
CTTTCGCC	-0.0432
GAACACTC	-0.0352
GTACTCTA	-0.0589
CCGCCTAA	-0.155
GCTGCCGA	-0.256
GATTTCCC	0.124
CGGCTAAC	0.0657
AGCGGACT	-0.266
ATTAGGAA	0.0996
AACGTTAA	0.159
ATACTAGC	0.0285
GATGACTA	0.113
CAATGTAC	-0.154

Sequence	PBM E-score
GGATCAAC	0.065
CCCGGGGA	-0.335
CTGTAATA	0.113
ATAAAAAT	0.199
ATTGGTTG	0.118
CTCGAGCC	-0.0222
AAGAACGC	0.0756
ATCCGGAC	-0.146
AGATCTTC	0.0262
GATAGAAC	0.109
ATTGCTGA	0.093
CCGGCCAG	-0.181
GAATGTAC	0.0877
CCCCATTA	-0.0898
ATTTACAC	-0.0267
CTAGGAAG	-0.0762
TCCTGTCA	-0.0145
TCAGTAGA	0.0364
AAGTACAT	0.162
GGAATGAA	0.243
ACTGCCCC	-0.151
AAGTTCGC	0.131
GTCTATTA	-0.0262
CTTTAGAC	5e-05
AATTCCCC	0.0602

Sequence	PBM E-score
CGTGGTTC	-0.0435
CACCCGTG	-0.263
CAATCTAC	-0.134
GGTGCGAC	-0.156
CCGGCATA	0.0113
CGTCTAAA	-0.0058
GCTCGGCA	0.00254
CTGAGTAC	-0.175
GCATTATA	0.109
CTGCAGAC	-0.0265
ATAAATAG	0.195
CAGAATAA	0.196
AGTTCAAA	0.0949
AACCCTAT	0.081
AGGCCTAG	-0.105
CCAGATAC	-0.0923
GCTCAATA	0.0876
GGATATCA	0.0118
GCGCACGA	0.084
GTATGGAC	-0.11
GAAAATCC	0.0305
ACGAGATA	0.0592
AAGACCCT	-0.114
AAGGACCC	-0.2
AACAATGC	0.136

Sequence	PBM E-score
CACTGCGG	0.0671
CAGAGGCC	-0.278
TCTCCACA	0.00014
CCTCAGCA	-0.186
GAGAGGAC	-0.0706
AGGCGATG	-0.104
CGAACTCG	0.0851
TTATAAAA	0.256
GAACTGTC	-0.049
ACTCGCAG	0.0964
CCGTAATC	0.157
CACTTGGC	-0.136
CCTATTCA	-0.139
TCTACTCA	0.137
AACTCCCC	-0.228
CCTTAGAG	-0.268
CCGTCGTA	0.0109
AGCCTCGG	-0.244
AAAGGGCT	-0.254
ACGCGCGT	0.178
TATTATAA	0.281
ACGTACAC	0.138
AGATGTCA	0.063
GGTGATCA	-0.0356
CAGGCTCA	-0.0744

Sequence	PBM E-score
GGTTATGA	0.0918
AAGCTCCC	-0.231
CGTACACC	-0.0419
GCCCCGAC	-0.176
TACTGAAA	0.273
ACGGAGTA	-0.0807
AGACATTG	0.0192
AGCGCCGG	-0.181
AACCAGTT	0.2
GGCTAAGA	-0.109
ATTCCCTA	0.0936
CCTTTTCA	0.0263
AAGCGCCA	-0.253
CTGGCGTC	-0.103
CACCCGAC	-0.14
ACTTCAAT	0.18
ATTGTTGC	0.0249
AGTCCAAA	-0.0855
TACACCAA	0.0771
AAGAGCCC	-0.211
CCACAGGA	-0.0415
CCAAAACG	0.0165
GCAGTTGA	-0.0429
CCCCAGCA	-0.188
AACTGCCC	-0.0934

Sequence	PBM E-score
TACCAAGA	0.0977
ATGTCGGC	-0.143
ACAGTTTC	0.174
AGGCCACT	-0.143
TCGCAGAA	-0.174
AATAGTCT	0.0416
CTCTTCTA	-0.0308
ACGTGCGG	0.144
ATATCCTA	0.133
GAAGGTAA	0.187
CTCAGATC	-0.0337
GAATCTCA	-0.147
CCCCACGG	-0.335
GGATTTAC	0.13
AGCTCGGC	-0.0442
CACATTAC	0.276
AAAATGGG	-0.0559
AGCCACTA	-0.0714
CGGTCATC	0.0664
CCACGACC	-0.19
GCTACATA	0.0203
AGCTACTC	-0.0266
GAGAAGGA	-0.117
CACTATAG	0.0438
GGCGTCGA	-0.00296

Sequence	PBM E-score
ATCGTCCA	-0.158
ATACGCAC	0.0362
AGCCTGAT	-0.0632
AATCATTG	0.142
CTCAGACA	0.087
TGTGGGAA	0.0673
CCGACCTC	-0.17
ACGCCGTC	0.0449
AAGAACTG	-0.0134
ACTAATGC	0.216
CAACTCTA	-0.0767
CGGAGATC	-0.142
CGCTACAA	0.0266
TATGATGA	0.169
GTCAATAA	0.0709
ACCTTATG	0.0534
AAGTAATG	0.191
AAGCGATA	0.0345
ATGTGGCA	-0.0638
AGTTCGCC	0.0288
AATGCTAG	-0.0127
CGGACGGC	-0.178
CCGGGCCA	-0.285
ATAAATAC	0.325
GTAAAGCA	0.145

Sequence	PBM E-score
CAGTCGGA	-0.00775
ATAGATGC	-0.0393
AGATCTAC	0.0426
GCGGGCGA	-0.164
AAGTTTTG	0.0825
CGAAACGA	0.108
GACCCGTA	-0.171
CTACTAAA	0.0259
CTTGGTTA	0.118
CTGAGTGC	-0.0152
ACTCGGCC	-0.0473
ATGAAAGA	0.233
CATGCCAA	0.118
TTACTCAA	0.069
AACTCCCG	-0.0429
ATGCATAC	0.153
CTTCCCCC	-0.29
CTAAAATA	0.148
AAAGCGCA	-0.049
CGACTCCG	-0.24
TGGGCAAA	0.0909
ACGCGTTC	0.064
AAATAATC	0.0637
CCCTCCCG	-0.203
CCACGAAA	-0.0359

Sequence	PBM E-score
GAGCCATC	-0.128
CTGCGCCC	-0.272
ACTTGATA	0.169
CCTTTACC	-0.182
CGATTGCG	-0.0346
ACAAAACA	0.202
CCGGACGC	0.026
AGTGGTGA	-0.0796
AGCCATAG	-0.161
AGTTGCAG	-0.13
AAGACTTG	0.0235
GTTAGTAA	0.217
GTTATAAA	0.283
CTCACAGA	-0.11
ATGTAGTG	0.0548
CTACGGGC	-0.258
TCAAGTGA	0.0272
AAGCATTA	0.106
AATATTGA	0.221
TCTCAGAA	-0.0479
TGGGAAAA	0.00484
CAATGCGC	0.116
ATCATCAC	0.0853
CCGTAGCG	-0.173
TAATTGTA	0.167

Part of the list above, as a markdown table.

| Sequence | PBM E-score |
| --- | --- |
| GAACTGTC | -0.049 |
| ACGTACAC | 0.138 |
| TCTCAGAA | -0.0479 |

Remaining list, next part.

Sequence	PBM E-score
AGAACCTC	-0.134
CTGGGGAA	-0.263
CCTCATCC	-0.283
CAGGTAGC	-0.203
ACTTCGCA	-0.0112
ACACCGTA	-0.00758
GCTTTGAC	0.119
ACCGGGCC	-0.243
ACCGACAC	0.025
AGGTATAC	0.0842
AAGGACGA	-0.141
GACGTATC	-0.18
CAATCTCG	-0.0908
AAAAGAGG	0.00617
CGACGCCG	-0.181
ATGCTCCA	-0.0487
GAATTCGC	0.0479
ACTAACAA	0.106
TCCAACAA	0.0108
TAGTAGGA	-0.0796
CCCTACCC	-0.115
GACGTGCA	0.0279
GCAAACGC	-0.0256
AGATGACT	-0.0919
AGGCCTCG	-0.274

Sequence	PBM E-score
AATATTCG	0.223
AACCTCGC	0.0227
CCCTCCAG	-0.374
GACCGAGA	0.0894
AAGCGTCG	-0.104
GTTGCCGA	-0.0261
ATCGTCCC	0.108
AGCCTACT	-0.0645
CGTCTTCC	-0.0322
GCCATCAA	0.114
TAACTTGA	0.0373
CCTACGCA	-0.0539
CTCCATTA	-0.109
CCGACGAC	-0.0462
AATATAAT	0.179
CCTTAGAC	-0.108
ACCACAAA	0.163
AGGCAGCA	0.184
CGTGCCAG	-0.258
AAGGTGAT	0.112
GTTCGGTA	0.0961
TGGCCGAA	0.0477
CTCTCATA	0.0903
CGTCTACA	-0.155
AACGGATG	-0.101

Sequence	PBM E-score
CGCCACGA	-0.252
ACCAAATA	0.177
ACGCGGGA	0.0897
GCCTGCAC	-0.176
GTTACATA	0.202
ACTTTGTG	0.0964
CAGCATTC	-0.0156
ATCTGAAC	-0.0175
ACTTCTGG	-0.0349
AGTCGCTC	-0.0879
CCAACATA	0.305
CAAGTCTG	-0.175
CGTGCGCA	-0.0258
CAGGGTGA	-0.131
CCCTAAGC	-0.167
CGATGCTA	0.0583
CATGACAC	0.197
ACAAAAAG	0.239
CCCCTACC	-0.212
CGATGCTC	-0.179
TCACTGCA	0.247
TAAACGGA	0.186
AGCCACAG	-0.278
GAAGTAGA	0.0861
ACAAGCAT	-0.0197

Sequence	PBM E-score
ATGCTGAC	-0.13
CCCGATAG	-0.101
ATCTACAC	0.0471
CGGCCTAC	-0.00923
ACTTTGTA	0.0238
CGTTATGC	0.127
CTTACTGA	0.0344
CAATTCCA	-0.102
TTAGCGAA	0.132
CATTGAAG	-0.114
CGGCTCGC	0.0898
CCCTACTA	-0.13
GATATGTA	0.138
CAGCAAAC	0.098
CGATACGA	-0.0959
AATAAGAT	0.075
TAGCGTGA	0.0431
TGGGTACA	-0.127
GGGTAATA	0.0455

Not a retest: an excerpt of the list.
Sequence	PBM E-score
ACTTTGTA	0.0238
CGTTATGC	0.127

Part of the list above, as a markdown table:

| Sequence | PBM E-score |
| --- | --- |
| CCTTTACC | -0.182 |
| CATTGAAG | -0.114 |
